Assay results from the supplement of paper PMC12819154, “High-throughput peptide-centric local stability assay extends protein–ligand identification to membrane proteins, tissues and bacteria” (Nature Structural & Molecular Biology, 2025).
This is one part of the list. Most values lie at the level of the controls, where differences are scatter.

Amino acid sequences for entries named in this document (tags omitted). A change or cut given only in a name is not applied to a line headed by its entry.
UniProt Q8TD55: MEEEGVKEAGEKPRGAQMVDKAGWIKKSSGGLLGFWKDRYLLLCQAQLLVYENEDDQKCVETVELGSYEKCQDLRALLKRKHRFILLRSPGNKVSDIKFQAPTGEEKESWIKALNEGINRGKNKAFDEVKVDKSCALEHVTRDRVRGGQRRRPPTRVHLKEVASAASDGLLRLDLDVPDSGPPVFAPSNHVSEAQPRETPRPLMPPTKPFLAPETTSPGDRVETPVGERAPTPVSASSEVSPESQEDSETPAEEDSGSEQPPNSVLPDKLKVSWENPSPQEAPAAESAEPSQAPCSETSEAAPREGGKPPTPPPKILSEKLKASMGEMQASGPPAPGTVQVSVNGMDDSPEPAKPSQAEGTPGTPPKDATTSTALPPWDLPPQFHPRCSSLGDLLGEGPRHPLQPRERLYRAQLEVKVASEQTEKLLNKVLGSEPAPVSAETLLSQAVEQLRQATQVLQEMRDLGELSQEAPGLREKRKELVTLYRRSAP
UniProt Q8WUX9: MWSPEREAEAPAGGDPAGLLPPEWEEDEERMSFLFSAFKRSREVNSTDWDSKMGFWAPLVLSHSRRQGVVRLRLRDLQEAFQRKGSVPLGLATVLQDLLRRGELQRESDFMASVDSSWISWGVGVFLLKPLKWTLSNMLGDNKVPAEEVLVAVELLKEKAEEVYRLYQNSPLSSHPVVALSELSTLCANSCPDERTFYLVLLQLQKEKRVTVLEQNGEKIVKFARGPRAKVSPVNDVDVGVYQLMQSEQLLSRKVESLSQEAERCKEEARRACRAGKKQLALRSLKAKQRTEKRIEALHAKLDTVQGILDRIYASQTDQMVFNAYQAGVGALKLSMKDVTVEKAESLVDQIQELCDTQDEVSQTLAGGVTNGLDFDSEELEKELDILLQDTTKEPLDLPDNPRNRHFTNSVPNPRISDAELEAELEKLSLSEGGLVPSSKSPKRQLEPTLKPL
UniProt Q8TDH9: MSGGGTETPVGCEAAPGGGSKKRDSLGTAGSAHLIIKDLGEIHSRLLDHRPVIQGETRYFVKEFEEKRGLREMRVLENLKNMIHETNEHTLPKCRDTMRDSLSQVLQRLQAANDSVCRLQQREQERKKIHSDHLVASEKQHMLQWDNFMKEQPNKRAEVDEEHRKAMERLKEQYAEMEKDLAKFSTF
UniProt Q8TF30: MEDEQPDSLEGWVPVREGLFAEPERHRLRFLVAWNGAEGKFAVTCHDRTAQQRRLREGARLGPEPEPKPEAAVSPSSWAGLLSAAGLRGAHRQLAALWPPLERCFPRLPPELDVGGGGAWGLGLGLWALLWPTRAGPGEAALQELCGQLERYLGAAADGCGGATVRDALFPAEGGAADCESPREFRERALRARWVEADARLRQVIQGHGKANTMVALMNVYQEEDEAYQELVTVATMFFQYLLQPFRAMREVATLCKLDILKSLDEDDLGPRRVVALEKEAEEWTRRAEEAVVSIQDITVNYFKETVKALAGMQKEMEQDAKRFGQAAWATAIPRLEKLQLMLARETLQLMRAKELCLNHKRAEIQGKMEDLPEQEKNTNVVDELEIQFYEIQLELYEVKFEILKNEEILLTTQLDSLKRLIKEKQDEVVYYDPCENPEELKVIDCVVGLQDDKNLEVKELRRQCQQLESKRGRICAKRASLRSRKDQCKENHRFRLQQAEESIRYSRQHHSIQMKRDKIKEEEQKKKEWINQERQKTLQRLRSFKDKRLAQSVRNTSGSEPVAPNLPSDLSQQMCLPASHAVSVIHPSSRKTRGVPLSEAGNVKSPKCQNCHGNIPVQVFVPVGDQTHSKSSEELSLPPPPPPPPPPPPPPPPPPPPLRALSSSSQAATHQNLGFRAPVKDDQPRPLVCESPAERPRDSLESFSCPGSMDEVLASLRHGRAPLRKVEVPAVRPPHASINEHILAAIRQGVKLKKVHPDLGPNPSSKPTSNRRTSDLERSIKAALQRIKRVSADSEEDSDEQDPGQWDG
UniProt Q8TES7: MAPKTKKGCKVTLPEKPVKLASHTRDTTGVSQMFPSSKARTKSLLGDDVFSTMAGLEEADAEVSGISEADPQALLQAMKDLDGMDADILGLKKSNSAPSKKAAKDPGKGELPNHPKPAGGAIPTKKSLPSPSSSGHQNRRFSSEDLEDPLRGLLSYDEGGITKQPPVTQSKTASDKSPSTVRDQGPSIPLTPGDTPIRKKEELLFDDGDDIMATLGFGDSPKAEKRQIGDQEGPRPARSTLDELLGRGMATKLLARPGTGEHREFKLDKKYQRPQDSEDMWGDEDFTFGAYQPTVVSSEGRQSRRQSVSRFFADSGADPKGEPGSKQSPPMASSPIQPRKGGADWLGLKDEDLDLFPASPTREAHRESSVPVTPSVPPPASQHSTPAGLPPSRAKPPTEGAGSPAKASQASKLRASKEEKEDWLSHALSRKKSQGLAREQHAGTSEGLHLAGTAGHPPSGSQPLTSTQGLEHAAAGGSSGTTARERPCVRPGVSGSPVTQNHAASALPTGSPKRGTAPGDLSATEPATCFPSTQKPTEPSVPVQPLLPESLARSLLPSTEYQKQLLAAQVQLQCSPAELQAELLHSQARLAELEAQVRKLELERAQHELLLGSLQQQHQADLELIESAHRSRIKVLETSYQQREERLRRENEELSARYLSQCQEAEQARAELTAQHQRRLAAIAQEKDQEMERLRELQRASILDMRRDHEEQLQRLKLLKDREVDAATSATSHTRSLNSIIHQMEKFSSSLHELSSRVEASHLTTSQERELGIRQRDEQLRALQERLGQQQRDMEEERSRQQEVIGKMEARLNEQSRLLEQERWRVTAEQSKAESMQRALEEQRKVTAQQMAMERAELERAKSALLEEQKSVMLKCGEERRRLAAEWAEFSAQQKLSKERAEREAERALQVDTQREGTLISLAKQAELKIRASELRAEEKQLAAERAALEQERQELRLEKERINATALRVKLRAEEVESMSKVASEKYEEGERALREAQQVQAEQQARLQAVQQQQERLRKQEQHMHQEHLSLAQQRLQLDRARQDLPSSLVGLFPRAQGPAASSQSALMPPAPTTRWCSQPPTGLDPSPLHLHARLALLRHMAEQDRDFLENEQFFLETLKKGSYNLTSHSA
UniProt Q8WYA0: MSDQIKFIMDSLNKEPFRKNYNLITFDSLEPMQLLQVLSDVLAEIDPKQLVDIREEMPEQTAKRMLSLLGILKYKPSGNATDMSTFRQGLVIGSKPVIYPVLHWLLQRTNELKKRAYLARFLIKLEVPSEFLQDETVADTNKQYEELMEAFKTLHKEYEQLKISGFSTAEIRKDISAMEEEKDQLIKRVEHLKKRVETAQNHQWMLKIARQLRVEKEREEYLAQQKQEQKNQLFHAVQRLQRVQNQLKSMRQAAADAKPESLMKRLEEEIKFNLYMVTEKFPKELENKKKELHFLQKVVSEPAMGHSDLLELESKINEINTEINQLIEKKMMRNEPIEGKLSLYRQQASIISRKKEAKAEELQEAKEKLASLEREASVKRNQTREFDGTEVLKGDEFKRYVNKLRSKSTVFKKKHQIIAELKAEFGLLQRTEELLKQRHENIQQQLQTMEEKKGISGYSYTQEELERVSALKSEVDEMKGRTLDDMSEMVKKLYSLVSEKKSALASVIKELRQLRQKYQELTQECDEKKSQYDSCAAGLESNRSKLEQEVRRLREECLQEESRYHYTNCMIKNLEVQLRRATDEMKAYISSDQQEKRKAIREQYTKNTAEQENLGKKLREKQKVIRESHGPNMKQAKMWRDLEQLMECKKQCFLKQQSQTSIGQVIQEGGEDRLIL
UniProt Q8WTR2: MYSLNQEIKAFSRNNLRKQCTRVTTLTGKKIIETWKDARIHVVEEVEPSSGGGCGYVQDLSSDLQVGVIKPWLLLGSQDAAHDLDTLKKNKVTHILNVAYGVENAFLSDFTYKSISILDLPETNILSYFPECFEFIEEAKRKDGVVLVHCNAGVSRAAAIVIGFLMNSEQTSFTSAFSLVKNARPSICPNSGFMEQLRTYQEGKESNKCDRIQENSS
UniProt Q92769, whole entry: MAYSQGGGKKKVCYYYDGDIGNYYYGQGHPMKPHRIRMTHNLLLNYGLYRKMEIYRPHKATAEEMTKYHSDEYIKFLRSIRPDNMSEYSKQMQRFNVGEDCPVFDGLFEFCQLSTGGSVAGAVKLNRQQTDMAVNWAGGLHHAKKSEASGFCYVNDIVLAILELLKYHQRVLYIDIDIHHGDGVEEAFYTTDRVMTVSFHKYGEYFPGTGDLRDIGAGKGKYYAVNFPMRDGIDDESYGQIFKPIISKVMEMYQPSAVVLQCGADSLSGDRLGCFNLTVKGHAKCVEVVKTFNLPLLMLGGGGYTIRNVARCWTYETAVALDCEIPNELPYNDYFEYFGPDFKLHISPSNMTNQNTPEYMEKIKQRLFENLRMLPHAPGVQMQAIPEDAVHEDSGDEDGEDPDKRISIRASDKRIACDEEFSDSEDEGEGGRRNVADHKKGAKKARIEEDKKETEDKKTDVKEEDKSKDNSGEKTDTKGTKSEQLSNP
UniProt Q92636: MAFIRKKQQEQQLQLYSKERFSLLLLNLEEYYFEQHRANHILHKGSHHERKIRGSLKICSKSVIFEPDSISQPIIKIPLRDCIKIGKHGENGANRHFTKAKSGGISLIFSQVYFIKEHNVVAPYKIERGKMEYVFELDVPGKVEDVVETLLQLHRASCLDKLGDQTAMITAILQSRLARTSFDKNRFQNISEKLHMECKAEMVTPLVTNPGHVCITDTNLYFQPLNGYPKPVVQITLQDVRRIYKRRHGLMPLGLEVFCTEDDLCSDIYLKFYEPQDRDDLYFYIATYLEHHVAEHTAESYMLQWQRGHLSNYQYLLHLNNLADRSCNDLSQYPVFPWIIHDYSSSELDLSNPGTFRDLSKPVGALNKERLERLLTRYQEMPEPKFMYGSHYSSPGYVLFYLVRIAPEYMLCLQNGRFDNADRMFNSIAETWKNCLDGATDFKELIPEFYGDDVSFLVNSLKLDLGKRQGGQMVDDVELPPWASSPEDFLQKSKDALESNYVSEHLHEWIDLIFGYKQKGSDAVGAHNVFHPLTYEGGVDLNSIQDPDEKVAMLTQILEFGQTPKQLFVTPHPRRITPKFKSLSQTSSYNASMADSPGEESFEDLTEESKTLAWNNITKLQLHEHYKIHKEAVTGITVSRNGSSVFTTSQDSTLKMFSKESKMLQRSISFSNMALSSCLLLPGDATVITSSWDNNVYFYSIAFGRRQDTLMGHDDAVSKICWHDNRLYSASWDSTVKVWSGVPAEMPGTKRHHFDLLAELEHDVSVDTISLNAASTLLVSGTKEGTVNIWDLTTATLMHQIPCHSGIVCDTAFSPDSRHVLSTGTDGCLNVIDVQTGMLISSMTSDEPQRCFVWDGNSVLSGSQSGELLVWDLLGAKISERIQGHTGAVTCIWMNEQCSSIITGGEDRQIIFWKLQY
UniProt Q92620: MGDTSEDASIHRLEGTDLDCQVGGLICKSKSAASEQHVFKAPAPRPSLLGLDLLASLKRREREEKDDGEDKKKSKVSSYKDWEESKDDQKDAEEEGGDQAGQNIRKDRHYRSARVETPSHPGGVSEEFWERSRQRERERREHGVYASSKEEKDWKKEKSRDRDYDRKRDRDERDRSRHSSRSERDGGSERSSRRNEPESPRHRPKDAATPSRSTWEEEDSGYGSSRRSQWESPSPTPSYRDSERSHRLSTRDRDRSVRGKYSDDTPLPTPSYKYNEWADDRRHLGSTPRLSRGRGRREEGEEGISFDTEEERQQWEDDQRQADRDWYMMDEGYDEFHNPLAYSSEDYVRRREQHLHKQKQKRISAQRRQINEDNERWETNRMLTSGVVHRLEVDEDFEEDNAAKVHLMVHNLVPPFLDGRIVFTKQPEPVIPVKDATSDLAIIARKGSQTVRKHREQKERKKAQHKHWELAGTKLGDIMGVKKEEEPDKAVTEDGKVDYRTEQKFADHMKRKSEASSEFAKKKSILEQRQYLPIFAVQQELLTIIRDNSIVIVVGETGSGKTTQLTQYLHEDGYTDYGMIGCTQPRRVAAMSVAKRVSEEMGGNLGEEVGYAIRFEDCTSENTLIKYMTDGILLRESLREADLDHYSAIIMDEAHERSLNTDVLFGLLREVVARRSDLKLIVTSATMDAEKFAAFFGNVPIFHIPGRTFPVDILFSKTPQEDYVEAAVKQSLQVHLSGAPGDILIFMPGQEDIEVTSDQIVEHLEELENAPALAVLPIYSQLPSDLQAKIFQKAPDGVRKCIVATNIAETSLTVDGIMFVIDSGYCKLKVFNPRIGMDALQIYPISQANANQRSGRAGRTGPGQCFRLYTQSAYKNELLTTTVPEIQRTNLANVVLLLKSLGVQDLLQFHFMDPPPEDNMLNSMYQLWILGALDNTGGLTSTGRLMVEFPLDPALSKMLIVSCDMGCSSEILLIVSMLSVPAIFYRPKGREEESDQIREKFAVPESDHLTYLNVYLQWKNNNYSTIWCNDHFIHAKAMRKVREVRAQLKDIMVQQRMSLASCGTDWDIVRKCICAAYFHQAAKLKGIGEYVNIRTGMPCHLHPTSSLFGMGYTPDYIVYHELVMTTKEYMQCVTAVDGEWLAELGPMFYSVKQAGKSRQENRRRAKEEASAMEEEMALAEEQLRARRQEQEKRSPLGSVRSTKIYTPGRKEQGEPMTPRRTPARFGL

Compound: CN[C@@H]1C[C@H]2O[C@@](C)([C@@H]1OC)n1c3ccccc3c3c4c(c5c6ccccc6n2c5c31)C(=O)NC4 [staurosporine]
Assay: log2 fold change of tryptic peptide abundance, ligand vs vehicle (limited proteolysis) (log2 ratio); higher = more trypsin-susceptible (destabilized)
Settings: ligand concentration: 20 uM; sample: K562 cleared lysate; digestion: 4 min, 22 C (HT-PELSA RT4min, Orbitrap Astral)

Target	log2 fold change
UniProt Q8WV93 (peptide sequence: NIPQFTLANR, peptide start residue: 375)	-0.233
PLEKHO2 (peptide sequence: SCALEHVTR, peptide start residue: 134) (UniProt Q8TD55)	-0.461
CHMP7 (peptide sequence: MSFLFSAFKR, peptide start residue: 31) (UniProt Q8WUX9)	-0.289
SNX29 (peptide sequence: QATVAMMNR, peptide start residue: 472) (UniProt Q8TEQ0)	-0.224
CASKIN2 (peptide sequence: SRGSGHSQEQPAPQPSGGDPSPPQER, peptide start residue: 705) (UniProt Q8WXE0)	-0.918
NUP205 (peptide sequence: AQIEQVIANCEHK, peptide start residue: 1207) (UniProt Q92621)	0.333
UniProt Q8TDH9 (peptide sequence: NMIHETNEHTLPK, peptide start residue: 81)	-1.5
UniProt Q8TF30 (peptide sequence: FAVTCHDR, peptide start residue: 41)	0.384
PTPMT1 (peptide sequence: AATALLEAGLAR, peptide start residue: 2) (UniProt Q8WUK0)	0.5
FBF1 (peptide sequence: QIGDQEGPRPAR, peptide start residue: 227) (UniProt Q8TES7)	-0.57
IFT81 (peptide sequence: SKLEQEVR, peptide start residue: 544) (UniProt Q8WYA0)	0.342
GOLGA1 (peptide sequence: GPLQAEALSVNESHVTSR, peptide start residue: 574) (UniProt Q92805)	-0.779
PHF10 (peptide sequence: VPEYIKK, peptide start residue: 196) (UniProt Q8WUB8)	0.26
DCAKD (peptide sequence: INAQLPLTDK, peptide start residue: 159) (UniProt Q8WVC6)	0.162
DUSP19 (peptide sequence: KIIETWKDAR, peptide start residue: 30) (UniProt Q8WTR2)	0.954
MYST3 (peptide sequence: LANPLYTEWILEAIKK, peptide start residue: 4) (UniProt Q92794)	0.469
MRPS31 (peptide sequence: HFMELVTCGLSK, peptide start residue: 349) (UniProt Q92665)	-0.394
HDAC2 (peptide sequence: TDVKEEDKSK, peptide start residue: 459) (UniProt Q92769)	0.6
BBX (peptide sequence: KFNSLPQYSPVTFDRK, peptide start residue: 696) (UniProt Q8WY36)	0.479
AHCTF1 (peptide sequence: AKPYHLSTSSVFR, peptide start residue: 1016) (UniProt Q8WYP5)	0.428
RNF138 (peptide sequence: TTACQHVFCRK, peptide start residue: 31) (UniProt Q8WVD3)	-0.19
NSMAF (peptide sequence: EHNVVAPYKIER, peptide start residue: 117) (UniProt Q92636)	-0.209
ZNF507 (peptide sequence: LPSAEETLSQK, peptide start residue: 402) (UniProt Q8TCN5)	-0.409
DHX38 (peptide sequence: AVTEDGKVDYR, peptide start residue: 490) (UniProt Q92620)	0.519
HDAC7 (peptide sequence: TVHPNSPGIPYR, peptide start residue: 104) (UniProt Q8WUI4)	0.0892
CHTF18 (peptide sequence: FNEGVSNAVR, peptide start residue: 957) (UniProt Q8WVB6)	0.167
DLG3 (peptide sequence: TGMIESNR, peptide start residue: 584) (UniProt Q92796)	0.191
UniProt Q8TDN6 (peptide sequence: MLMPHSK, peptide start residue: 83)	-0.54

Looked up one by one from the list above, 2 records:
Target	log2 fold change
DCAKD (peptide sequence: INAQLPLTDK, peptide start residue: 159) (UniProt Q8WVC6)	0.162
CHTF18 (peptide sequence: FNEGVSNAVR, peptide start residue: 957) (UniProt Q8WVB6)	0.167
